Source: patent US20090247646A1, “USE OF RESVERATROL AND DERIVATIVES THEREOF FOR PROMOTING THE WELLNESS STATE IN MAMMALS” (priority 2006, published 2009)
Further values from the same series stand in other lists.

System: gene expression in heart tissue
Assay: Genome-wide gene expression in heart tissue of old mice fed a resveratrol-supplemented diet (Affymetrix Mouse Genome 430 2.0 array)
Assay type: in vivo

## Oc1ccc(/C=C/c2cc(O)cc(O)c2)cc1 [resveratrol, 3,4′,5-Trihydroxy-trans-stilbene]
1452478_at Mus musculus similar to heart alpha-kinase (LOC381181), mRNA
  Effect of resveratrol on changeing gene expression from old to young profile: >100%
1452545_a_at integrin beta 1 (fibronectin receptor beta)
  Effect of resveratrol on changeing gene expression from old to young profile: 60-70%
1452661_at transferrin receptor
  Effect of resveratrol on changeing gene expression from old to young profile: <60%
1452670_at myosin, light polypeptide 9, regulatory
  Effect of resveratrol on changeing gene expression from old to young profile: 90-100%
1452690_at KH-type splicing regulatory protein
  Effect of resveratrol on changeing gene expression from old to young profile: >100%
1452879_at synaptopodin 2
  Effect of resveratrol on changeing gene expression from old to young profile: 80-90%
1452985_at uveal autoantigen with coiled-coil domains and ankyrin repeats
  Effect of resveratrol on changeing gene expression from old to young profile: 90-100%
1453137_at F-box protein 30
  Effect of resveratrol on changeing gene expression from old to young profile: <60%
1453307_a_at anaphase-promoting complex subunit 5
  Effect of resveratrol on changeing gene expression from old to young profile: 70-80%
1453406_a_at RAB28, member RAS oncogene family
  Effect of resveratrol on changeing gene expression from old to young profile: >100%
1453604_a_at Hbs1-like (S. cerevisiae)
  Effect of resveratrol on changeing gene expression from old to young profile: 70-80%
1453740_a_at cyclin L2
  Effect of resveratrol on changeing gene expression from old to young profile: 90-100%
1453818_a_at hypothetical gene supported by AK078282, AK078855, BC052508
  Effect of resveratrol on changeing gene expression from old to young profile: <60%
1453960_a_at capping protein (actin filament) muscle Z-line, beta
  Effect of resveratrol on changeing gene expression from old to young profile: 70-80%
1454603_a_at CCR4-NOT transcription complex, subunit 2
  Effect of resveratrol on changeing gene expression from old to young profile: >100%
1454675_at thyroid hormone receptor alpha
  Effect of resveratrol on changeing gene expression from old to young profile: >100%
1454696_at guanine nucleotide binding protein, beta 1
  Effect of resveratrol on changeing gene expression from old to young profile: >100%
1454699_at sestrin 1
  Effect of resveratrol on changeing gene expression from old to young profile: 90-100%
1454708_at actin-binding LIM protein 1
  Effect of resveratrol on changeing gene expression from old to young profile: >100%
1454774_at expressed sequence AW610627
  Effect of resveratrol on changeing gene expression from old to young profile: 60-70%
1454843_at phosphoribosyl pyrophosphate synthetase 2
  Effect of resveratrol on changeing gene expression from old to young profile: 70-80%
1454868_at expressed sequence AV028368
  Effect of resveratrol on changeing gene expression from old to young profile: >100%
1454928_at hypothetical protein E130307D12
  Effect of resveratrol on changeing gene expression from old to young profile: >100%
1454966_at integrin alpha 8
  Effect of resveratrol on changeing gene expression from old to young profile: 70-80%
1455048_at immunoglobulin superfamily, member 2
  Effect of resveratrol on changeing gene expression from old to young profile: >100%
1455101_at Mus musculus, clone IMAGE: 2647821, mRNA
  Effect of resveratrol on changeing gene expression from old to young profile: >100%
1455107_at Mus musculus transcribed sequence with weak similarity to protein pir: I58401 (M. musculus) I58401 protein-tyrosine kinase (EC 2.7.1.112) JAK3 —mouse
  Effect of resveratrol on changeing gene expression from old to young profile: 90-100%
1455136_at ATPase, Na+/K+ transporting, alpha 2 polypeptide
  Effect of resveratrol on changeing gene expression from old to young profile: >100%
1455156_at striatin, calmodulin binding protein
  Effect of resveratrol on changeing gene expression from old to young profile: 90-100%
1455173_at G1 to phase transition 1
  Effect of resveratrol on changeing gene expression from old to young profile: 70-80%
1455247_at angiomotin-like 1
  Effect of resveratrol on changeing gene expression from old to young profile: >100%
1455285_at solute carrier family 31, member 1
  Effect of resveratrol on changeing gene expression from old to young profile: >100%
1455393_at ceruloplasmin
  Effect of resveratrol on changeing gene expression from old to young profile: 90-100%
1455404_at junctophilin 2
  Effect of resveratrol on changeing gene expression from old to young profile: >100%
1455518_at Mus musculus transcribed sequences
  Effect of resveratrol on changeing gene expression from old to young profile: >100%
1455539_at glycosylphosphatidylinositol specific phospholipase D1 [BLAST]
  Effect of resveratrol on changeing gene expression from old to young profile: >100%
1455725_a_at H3 histone, family 3B
  Effect of resveratrol on changeing gene expression from old to young profile: >100%
1455870_at Mus musculus transcribed sequence with weak similarity to protein sp: Q9Y2D5 (H. sapiens) AKA2_HUMAN A-kinase anchor protein 2 (Protein kinase A anchoring protein 2) (PRKA2)
  Effect of resveratrol on changeing gene expression from old to young profile: >100%
1455961_at membrane metallo endopeptidase [BLAST]
  Effect of resveratrol on changeing gene expression from old to young profile: >100%
1456080_a_at tumor differentially expressed 1
  Effect of resveratrol on changeing gene expression from old to young profile: 90-100%
1456315_a_at protein tyrosine phosphatase-like (proline instead of catalytic arginine), member a
  Effect of resveratrol on changeing gene expression from old to young profile: 70-80%
1456341_a_at basic transcription element binding protein 1
  Effect of resveratrol on changeing gene expression from old to young profile: >100%
1456398_at expressed sequence AI316828
  Effect of resveratrol on changeing gene expression from old to young profile: <60%
1456407_a_at tousled-like kinase 1
  Effect of resveratrol on changeing gene expression from old to young profile: 70-80%
1456620_at v-maf musculoaponeurotic fibrosarcoma oncogene family, protein B (avian)
  Effect of resveratrol on changeing gene expression from old to young profile: <60%
1456623_at tropomyosin 1, alpha
  Effect of resveratrol on changeing gene expression from old to young profile: >100%
1456813_at Mus musculus transcribed sequences
  Effect of resveratrol on changeing gene expression from old to young profile: 90-100%
1456930_at hypothetical protein 9530003A05
  Effect of resveratrol on changeing gene expression from old to young profile: >100%
1456981_at transmembrane channel-like gene family 7
  Effect of resveratrol on changeing gene expression from old to young profile: 60-70%
1457701_at Mus musculus transcribed sequence with strong similarity to protein sp: P00722 (E. coli) BGAL_ECOLI Beta-galactosidase (Lactase)
  Effect of resveratrol on changeing gene expression from old to young profile: 90-100%
1458302_at Mus musculus transcribed sequences
  Effect of resveratrol on changeing gene expression from old to young profile: 80-90%
1459238_at Mus musculus transcribed sequences
  Effect of resveratrol on changeing gene expression from old to young profile: <60%
1460213_at golgi autoantigen, golgin subfamily a, 4
  Effect of resveratrol on changeing gene expression from old to young profile: 90-100%
1460246_at methyl CpG binding protein 2
  Effect of resveratrol on changeing gene expression from old to young profile: >100%
1460287_at tissue inhibitor of metalloproteinase 2
  Effect of resveratrol on changeing gene expression from old to young profile: >100%
1460302_at thrombospondin 1
  Effect of resveratrol on changeing gene expression from old to young profile: >100%
1460320_at beclin 1 (coiled-coil, myosin-like BCL2-interacting protein)
  Effect of resveratrol on changeing gene expression from old to young profile: 90-100%
1460337_at SH3-domain kinase binding protein 1
  Effect of resveratrol on changeing gene expression from old to young profile: >100%
1460367_at high mobility group box transcription factor 1
  Effect of resveratrol on changeing gene expression from old to young profile: 70-80%
1460556_at DNA Segment, Chr 15 Massachusetts Institute of Technology 260
  Effect of resveratrol on changeing gene expression from old to young profile: >100%
1460565_at solute carrier family 41, member 1
  Effect of resveratrol on changeing gene expression from old to young profile: >100%
